Experimental data: article PMC11802453
These are yes or no findings as the source states them, for the method shown. In cells and extracts the contact can be indirect. Some results given as binding are weak or reduced against the parent protein; the word gives no strength.

The chains behind the UniProt entries cited, without tags or fusion partners.
UniProt P42859: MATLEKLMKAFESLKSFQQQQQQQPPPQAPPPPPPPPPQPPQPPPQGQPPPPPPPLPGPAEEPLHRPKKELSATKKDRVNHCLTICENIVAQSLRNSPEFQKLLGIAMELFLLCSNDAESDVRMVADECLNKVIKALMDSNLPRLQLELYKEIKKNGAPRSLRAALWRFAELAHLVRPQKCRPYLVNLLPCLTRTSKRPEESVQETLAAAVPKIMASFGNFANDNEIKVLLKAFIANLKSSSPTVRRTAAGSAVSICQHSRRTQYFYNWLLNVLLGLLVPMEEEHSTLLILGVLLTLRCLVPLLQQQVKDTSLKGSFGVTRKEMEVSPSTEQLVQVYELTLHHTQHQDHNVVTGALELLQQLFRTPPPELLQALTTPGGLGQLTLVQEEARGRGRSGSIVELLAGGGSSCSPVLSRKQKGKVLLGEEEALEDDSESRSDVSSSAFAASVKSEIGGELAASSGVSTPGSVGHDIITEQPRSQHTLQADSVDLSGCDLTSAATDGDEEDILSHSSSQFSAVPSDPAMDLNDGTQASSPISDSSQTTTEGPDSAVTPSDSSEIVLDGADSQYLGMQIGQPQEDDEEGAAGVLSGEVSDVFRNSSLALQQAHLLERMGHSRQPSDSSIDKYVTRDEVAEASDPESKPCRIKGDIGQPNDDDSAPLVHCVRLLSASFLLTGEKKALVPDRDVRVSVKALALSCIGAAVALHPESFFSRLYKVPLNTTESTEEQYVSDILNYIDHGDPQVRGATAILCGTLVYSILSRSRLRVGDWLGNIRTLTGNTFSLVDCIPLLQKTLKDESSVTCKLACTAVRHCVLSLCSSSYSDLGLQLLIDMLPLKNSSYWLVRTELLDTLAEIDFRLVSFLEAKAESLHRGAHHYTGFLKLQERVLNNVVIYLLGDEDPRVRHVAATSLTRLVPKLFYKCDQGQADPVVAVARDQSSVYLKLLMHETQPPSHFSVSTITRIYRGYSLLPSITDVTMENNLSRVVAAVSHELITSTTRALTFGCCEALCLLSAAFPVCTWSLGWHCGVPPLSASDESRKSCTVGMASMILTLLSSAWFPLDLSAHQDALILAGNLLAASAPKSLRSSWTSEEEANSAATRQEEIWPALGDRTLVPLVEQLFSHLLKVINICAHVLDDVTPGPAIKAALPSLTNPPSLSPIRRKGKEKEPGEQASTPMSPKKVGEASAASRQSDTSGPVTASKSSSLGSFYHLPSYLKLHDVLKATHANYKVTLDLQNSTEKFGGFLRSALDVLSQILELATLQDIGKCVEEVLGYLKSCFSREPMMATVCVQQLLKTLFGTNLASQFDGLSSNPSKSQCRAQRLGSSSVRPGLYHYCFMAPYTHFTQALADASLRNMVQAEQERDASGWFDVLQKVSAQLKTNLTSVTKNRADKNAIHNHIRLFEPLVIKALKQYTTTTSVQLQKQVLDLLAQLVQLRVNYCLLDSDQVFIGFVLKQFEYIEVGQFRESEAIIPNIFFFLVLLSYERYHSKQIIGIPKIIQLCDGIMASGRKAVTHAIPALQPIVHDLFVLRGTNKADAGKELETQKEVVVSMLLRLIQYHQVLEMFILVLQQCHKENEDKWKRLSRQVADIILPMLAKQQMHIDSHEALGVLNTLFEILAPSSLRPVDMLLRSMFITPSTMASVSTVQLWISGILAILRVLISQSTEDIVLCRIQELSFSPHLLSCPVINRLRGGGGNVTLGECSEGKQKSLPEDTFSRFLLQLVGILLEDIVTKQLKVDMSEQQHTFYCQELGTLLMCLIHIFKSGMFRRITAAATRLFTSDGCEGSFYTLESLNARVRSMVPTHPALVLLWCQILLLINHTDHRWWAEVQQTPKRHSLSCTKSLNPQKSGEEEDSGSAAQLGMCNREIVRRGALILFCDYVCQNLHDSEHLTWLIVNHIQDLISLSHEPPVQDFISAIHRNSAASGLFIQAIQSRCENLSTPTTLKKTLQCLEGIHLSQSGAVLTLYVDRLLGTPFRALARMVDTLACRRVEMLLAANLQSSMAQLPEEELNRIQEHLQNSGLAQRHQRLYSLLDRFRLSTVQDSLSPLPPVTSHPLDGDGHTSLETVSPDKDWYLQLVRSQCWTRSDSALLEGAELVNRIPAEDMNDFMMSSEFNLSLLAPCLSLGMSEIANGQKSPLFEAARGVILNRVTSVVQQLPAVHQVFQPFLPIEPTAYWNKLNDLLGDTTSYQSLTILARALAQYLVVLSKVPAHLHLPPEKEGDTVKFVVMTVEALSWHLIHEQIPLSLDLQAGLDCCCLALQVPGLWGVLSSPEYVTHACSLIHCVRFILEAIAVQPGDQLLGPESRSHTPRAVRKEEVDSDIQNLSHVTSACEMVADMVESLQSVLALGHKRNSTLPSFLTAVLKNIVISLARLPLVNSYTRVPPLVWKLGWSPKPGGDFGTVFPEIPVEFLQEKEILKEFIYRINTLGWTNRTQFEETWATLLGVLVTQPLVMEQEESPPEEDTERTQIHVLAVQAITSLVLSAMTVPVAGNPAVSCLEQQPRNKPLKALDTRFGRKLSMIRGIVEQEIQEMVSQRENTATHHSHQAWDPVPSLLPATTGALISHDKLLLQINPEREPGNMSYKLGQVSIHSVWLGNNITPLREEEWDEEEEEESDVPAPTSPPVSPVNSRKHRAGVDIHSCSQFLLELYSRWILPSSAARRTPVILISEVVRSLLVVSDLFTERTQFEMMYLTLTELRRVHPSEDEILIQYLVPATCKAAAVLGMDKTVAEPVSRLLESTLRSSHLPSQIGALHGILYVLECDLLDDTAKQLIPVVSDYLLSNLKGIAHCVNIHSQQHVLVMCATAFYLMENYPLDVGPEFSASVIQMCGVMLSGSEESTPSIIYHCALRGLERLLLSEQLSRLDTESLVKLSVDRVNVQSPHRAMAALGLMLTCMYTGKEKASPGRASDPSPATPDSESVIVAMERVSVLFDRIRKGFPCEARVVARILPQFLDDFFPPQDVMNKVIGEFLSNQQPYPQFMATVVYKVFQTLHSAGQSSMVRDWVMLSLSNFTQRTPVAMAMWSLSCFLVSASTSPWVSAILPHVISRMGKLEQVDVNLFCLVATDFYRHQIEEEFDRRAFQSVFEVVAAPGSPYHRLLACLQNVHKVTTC
UniProt Q921F2: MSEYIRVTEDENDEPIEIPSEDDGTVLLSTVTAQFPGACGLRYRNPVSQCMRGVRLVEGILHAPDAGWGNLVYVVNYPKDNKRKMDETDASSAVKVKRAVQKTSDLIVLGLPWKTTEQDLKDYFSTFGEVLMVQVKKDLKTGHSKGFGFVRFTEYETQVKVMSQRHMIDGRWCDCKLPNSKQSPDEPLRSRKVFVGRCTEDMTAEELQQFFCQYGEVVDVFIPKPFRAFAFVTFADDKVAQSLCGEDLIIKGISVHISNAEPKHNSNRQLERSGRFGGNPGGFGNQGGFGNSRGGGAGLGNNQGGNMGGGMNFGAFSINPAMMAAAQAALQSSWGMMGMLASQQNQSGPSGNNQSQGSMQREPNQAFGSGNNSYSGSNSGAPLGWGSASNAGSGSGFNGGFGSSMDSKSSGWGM

Biological target: mouse full-length HTT (huntingtin) (mouse) (UniProt P42859)
Assay: co-IP; mouse brain lysate, 1 mg of protein per IP, primary antibody 1:1,000, Dynabeads sheep anti-rabbit or goat anti-mouse, 1 h at room temperature; 3x high-salt wash (1 M NaCl, 1% NP-40, 0.1% SDS, 0.5% sodium deoxycholate), 2x low-salt wash; immunoblot

binding: binds
Substance: TDP-43 (TAR DNA-binding protein, TARDBP) (from UniProt Q921F2 1-414)
